Earlier results as cited in patent publication US7476672B2, “Acetylenic compounds useful in treating inflammatory disorders” (Janssen Pharmaceutica N.V., priority 2002, dated 2009).
Read-outs that look alike come from different tables or passages of the source.

Test system: potassium peroxochromate arthritis
Settings: mice, cited from earlier work

## CN[C@@H]1C[C@H]2O[C@@](C)([C@@H]1OC)n1c3ccccc3c3c4c(c5c6ccccc6n2c5c31)C(=O)NC4 [staurosporine]
100 nmol
  inhibition of the arthritis: 85%
Daily doses of 30 nmol/kg
  inhibition of the arthritis: 50%
